Results on 63 molecules are retold here after PubChem BioAssay AID493014 (National Center for Advancing Translational Sciences (NCATS), 2011).

The nature of the assay: qHTS Assay to Find Inhibitors of Chronic Active B-Cell Receptor Signaling. Conditions: ABC-DLBCL IkBa-CBG/CBR reporter, luminescence ratio (green luciferase fused to IkBa over red control in TMD8 lymphoma cells), 4 h. The procedure, abridged:
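Concentration-response series (up to 46 uM) were applied to TMD8 dual-reporter cells for 4 h at 37C with doxycycline. Green/red ratio, after filter-overlap correction, defined %Activity; red signal alone was normalised to basal cells and zero luminescence.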

Setting [1] is: measured here: CBR red luminescence, cell number.
Where [2] appears, read: measured here: IkBa-CBG green luminescence.

As usually defined, the AC50 is the concentration at which the activity in the assay is half-maximal.

Molecules are shown by their SMILES. The list shows a part of the results. Shown are side measurements of this screen, not its main read-out; they come without a call. Compounds called inactive in the main read-out are mostly missing here. Words in brackets tell the shape of the fitted curve; partial curves, single points and poor fits give uncertain potencies. Square brackets hold non-standard residues; d marks the D form. Peptide text beside a SMILES is read from it. * marks the point of attachment. ξ: configuration not given here. Cbz = O=C(OCc1ccccc1)*; ξA = CC(N)C(=O)O

For the molecule `CCOC(=O)c1cc(-c2ccccc2)nc2nc(N3CCCCC3)sc12`, under setting [1], the AC50 is 0.291 µM [rising, full curve, poor fit].

As for `O=C(CCCN1C(=O)/C(=C/c2ccccc2Cl)SC1=S)NNC(=O)c1ccc(Cl)cc1Cl`, under setting [1], the AC50 was 0.891 µM [falling, full curve, poor fit]. Consider `Cc1ccccc1NC(=O)COc1ccc2c(c1)OC(C)(C)CC2=O`, for which the AC50 under setting [1] is 11.2 µM [falling, partial curve, poor fit]. On the same count and under the same terms, for `Nc1[nH]n2c(=O)cc(-c3ccccc3)nc2c1N=Nc1ccccc1` the value was 4.47 µM [falling, full curve, poor fit]; for `COc1ccc(S(=O)(=O)N(CC(=O)N2CCOCC2)c2cc(Cl)ccc2OC)cc1OC`, 35.5 µM [rising, single point]. On to `COc1cc(C(=O)N/N=C/c2ccc3c(c2)c2ccccc2n3C)ccc1O`, for which the AC50 under setting [1] is 6.31 µM [falling, full curve]. For the molecule `COC(=O)CNC(=O)C(C)NC(=O)CNC(=O)OCc1ccccc1` (stereo not drawn) (Cbz-Gly-[ξA]-Gly-OMe), the AC50 under setting [1] was 11.2 µM [rising, partial curve, poor fit]. For the molecule `O=C(Nc1ccc(Cl)cc1)Nc1ccccc1Sc1ncc([N+](=O)[O-])s1`, under setting [1], the AC50 is 6.31 µM [falling, partial curve]. On the same count and under the same terms, for `CCCC(=O)N1N=C(c2ccccc2)CC1c1cn(C)c2ccccc12` (configuration not stated) the value was 23.1 µM [falling, single point]; for `CCOC(=O)CC1C(C(=O)OCC)ON2OC(C(=O)OC)C(C(=O)OCC)C12` (configuration not stated), 0.092 µM [rising, full curve, poor fit]. Still for that read-out and setting: the result for `O=C(CSc1nnnn1C1CCCCC1)Nc1ccc2c(c1)OCO2` reads 6.51 µM [falling, single point]. Regarding `CCOc1ccc(NC(=O)CC2C(=O)N(c3ccccc3)C(=O)N2CCc2cccs2)cc1` (configuration not stated), the AC50 under setting [1] is 0.58 µM [rising, full curve, poor fit]. Take `COc1ccc(OCC(=O)NNC(=O)C2CCN(c3ncnc4sc(C)c(C)c34)CC2)cc1`: the AC50 under setting [1] is 4.61 µM [falling, single point]. Still for that read-out and setting: for `c1ccc(CNc2nc3ccccc3n3cnnc23)cc1` the value was 6.51 µM [rising, full curve, poor fit]; for `Cc1cccc(NC(=O)c2ccccc2O)c1C`, 35.5 µM [falling, single point].

Turning to `CCN(CC)CCn1c(=O)n(-c2ccc(Cl)cc2)c(=O)c2c3c(sc21)CN(C)CC3`, the AC50 under setting [1] is 0.891 µM [rising, full curve]. Same read-out and setting: for `Clc1ccc(/C=N/N2CCCCC2)cc1` the value was 12.6 µM [rising, partial curve, poor fit]; for `Cn1c(N)c(C(=O)CSc2nnc(C3CC3)n2-c2ccccc2)c(=O)n(C)c1=O`, 1.46 µM [falling, full curve]. On the same count and under the same terms, the result for `CCC(OC(=O)C(C)N1C(=O)C(=O)c2ccccc21)C(=O)Nc1ccccc1OC` (configuration not stated) reads 4.47 µM [rising, partial curve, poor fit]. Same read-out and setting: the result for `O=C(Nc1ccc(Cl)cc1)Nc1nnc(Cc2ccc([N+](=O)[O-])cc2)s1` reads 29.1 µM [rising, single point]. Regarding `COc1cc2c(cc1OC)[C@@H](NC(=O)COc1ccccc1)[C@H](OCc1ccccc1)C2`, the AC50 was 10.3 µM [rising, partial curve, poor fit] under setting [1] and 0.517 µM [falling, partial curve, poor fit] under setting [2]. `Cc1nc2ccc(NC(=O)c3cnc(Cl)c(Cl)c3)cc2s1`: the AC50 under setting [1] is 7.94 µM [falling, partial curve, poor fit]. For the molecule `Cc1ccc(C(=O)OCC(=O)N2CCCCCC2)c(O)c1`, the AC50 under setting [1] is 1.46 µM [rising, full curve]. Consider `O=C(c1ccc(-c2ccccc2Cl)o1)N1CCCC(C(F)(F)F)C1` (configuration not stated), for which the AC50 under setting [1] is 32.6 µM [falling, single point]. The same measure, in the same setting: for `Cn1c(=N)n(CC(=O)C(C)(C)C)c2ccccc21` the value was 13 µM [rising, partial curve, poor fit]; for `Cn1cccc1C(C#N)c1ncc(C(F)(F)F)cc1Cl` (configuration not stated), 14.1 µM [falling, partial curve, poor fit]. Take `Cc1[nH]c2ccccc2c1C(=O)C(=O)NCCOc1ccccc1`: the AC50 under setting [1] is 15.8 µM [rising, single point]. The same measure, in the same setting: for `O=C(NCc1ccccc1)c1ccc(-c2ccccc2F)o1` the value was 14.6 µM [rising, single point]. On the same count and under the same terms, the result for `COc1ccc(Cl)cc1NC(=O)NN1CCN(C)CC1` reads 35.5 µM [falling, single point].

In the case of `Cn1c(=O)c([N+](=O)[O-])c(Cl)c2ccccc21`, the AC50 was 5.62 µM [rising, single point] under setting [1] and 5.62 µM [falling, single point] under setting [2]. For the molecule `CNC(=O)/C(C#N)=C/c1ccc(OCCOc2ccccc2)cc1`, the AC50 under setting [1] is 12.6 µM [rising, partial curve, poor fit]. Same read-out and setting: the result for `COc1ccccc1NC(=O)CN1CCN(CC(=O)Nc2ccc(F)cc2F)CC1` reads 20 µM [falling, partial curve, poor fit]; that for `COc1cc(C2CC(=O)N3CN(Cc4ccco4)CSC3=C2C#N)ccc1OCc1ccccc1` (configuration not stated), 17.8 µM [falling, single point]. On the same count and under the same terms, the result for `Cc1ccc(N2CC(C(=O)Nc3nc4ccc(S(C)(=O)=O)cc4s3)CC2=O)cc1` (configuration not stated) reads 7.08 µM [falling, full curve, poor fit]; that for `COc1cccc(C(=O)NCC2(c3ccccc3)CCCC2)c1`, 35.5 µM [falling, single point]; that for `CCN(Cc1ccccc1)Cc1ccc(OCc2ccccc2)cc1`, 17.8 µM [rising, partial curve, poor fit]. The same measure, in the same setting: for `CCn1ccnc1CN(C)Cc1nc(-c2ccc3c(c2)OCO3)no1` the value was 3.98 µM [rising, full curve].

Turning to `O=C1C(c2ccccc2)=[N+]([O-])c2ccccc21`, the AC50 under setting [2] is 18.4 µM [falling, single point]. Regarding `COc1cccc(C2=NOC(C(=O)NCc3ccc(F)cc3)C2)c1` (configuration not stated), the AC50 by setting is: under setting [1], 11.2 µM [rising, partial curve]; under setting [2], 12.6 µM [falling, single point]. For the molecule `O=C(c1c(F)cccc1F)N1CCC(O)(c2cccnc2)CC1`, the AC50 under setting [1] was 0.731 µM [rising, partial curve, poor fit]. The same measure, in the same setting: for `O=C(c1c(F)cccc1F)N1CCN(c2ncc(Br)cn2)CC1` the value was 11.2 µM [rising, partial curve, poor fit]; for `CC1=NN(c2ccc(Cl)c(C(=O)O)c2)C(=O)/C1=C\c1ccc(-c2ccc(C(=O)O)cc2)o1`, 6.31 µM [falling, full curve, poor fit]; for `Cc1ccc(-c2noc(-c3ccoc3C)n2)cc1`, 0.501 µM [falling, partial curve, poor fit]. For `N#C/C(=C/c1ccccc1[N+](=O)[O-])C(=O)NCc1ccco1`, the AC50 under setting [1] is 20.6 µM [falling, partial curve, poor fit]. Consider `CC(C)Nc1nc(Cl)nc(Nc2ccccc2)n1`, for which the AC50 under setting [1] was 3.98 µM [falling, partial curve, poor fit]. The same measure, in the same setting: for `COc1cccc(/C=N\NC(=O)c2sc(N)nc2C)c1OC` the value was 8.2 µM [falling, partial curve, poor fit]; for `O=C(NNC(=O)c1ccc(Oc2ccc(C3SCCS3)cc2)o1)c1ccc(Cl)cc1`, 6.31 µM [falling, full curve]. On the same count and under the same terms, for `Cc1ccc2nc(C)/c(=N\O)c(C)nc2c1` the value was 0.398 µM [rising, full curve, poor fit]; for `Clc1ccc(OCCSc2ncccn2)c2ccccc12`, 2 µM [rising, full curve, poor fit]; for `COC(=O)c1ccccc1NC(=O)/C=C/c1ccco1`, 9.2 µM [falling, partial curve]. Turning to `Cc1cc(NC(=O)CCC(=O)N(c2ccccc2)C(C(=O)NC2CCCC2)c2ccccc2C)no1` (configuration not stated), the AC50 under setting [1] was 35.5 µM [rising, single point]. `CC(c1ccco1)N(C(=O)Nc1ccc(Cl)cc1)c1ccccn1` (configuration not stated): the AC50 under setting [1] was 3.16 µM [rising, partial curve, poor fit]. Same read-out and setting: the result for `Cc1ccc(C)c(S(=O)(=O)N2CCC(c3nc4c(nnn4Cc4ccc(F)cc4)c(=O)[nH]3)CC2)c1` reads 35.5 µM [falling, single point].

With `C[n+]1ccccc1/C=C/c1cc(Br)ccc1O`, the AC50 under setting [1] is 5.62 µM [rising, full curve, poor fit].

Regarding `CN(C)S(=O)(=O)c1cccc(NC(=O)c2ccc(Sc3nncn3C)c([N+](=O)[O-])c2)c1`, the AC50 under setting [1] is 10 µM [rising, partial curve]. With `Cc1sc2nc(C3CC3)nc(SCC(=O)N3CCc4ccccc4C3)c2c1C`, the AC50 under setting [1] is 23.1 µM [falling, single point].

With `CCOC(=O)N1CCN(C(=O)c2ccc(Cn3c(=S)[nH]c4cc5c(cc4c3=O)OCO5)cc2)CC1`, the AC50 under setting [1] is 0.146 µM [falling, full curve].

As for `O=C(Nc1ccc(F)c([N+](=O)[O-])c1)c1ccc2c(c1)OCCO2`, under setting [1], the AC50 is 5.01 µM [rising, single point].

Regarding `CC(C)(C)OC(=O)CN1C(=O)NC(Cc2c[nH]c3ccccc23)C1=O` (configuration not stated), the AC50 under setting [1] was 11.2 µM [rising, single point]. In the case of `Cc1ccc(OCC(=O)Nc2cccc(-c3nnc(-c4ccccc4)o3)c2)cc1`, under setting [1], the AC50 was 2.31 µM [rising, full curve]. On to `Cc1cc(N2CCN(C)CC2)nc2ccc(NC(=S)N3CCN(c4ccc(Cl)cc4)CC3)cc12`, for which the AC50 under setting [1] is 12.6 µM [falling, single point]. For `Cc1cccn2cc(COc3cccc([N+](=O)[O-])c3)nc12`, the AC50 under setting [1] is 5.01 µM [rising, full curve, poor fit]. Turning to `C=CCN(c1ccc(C(=O)Nc2ccc3c(c2)n(C)c(=O)n3C)cc1)S(C)(=O)=O`, the AC50 is 11.2 µM [rising, partial curve] under setting [1] and 35.5 µM [falling, single point] under setting [2].
